# Some of these results come from one statement about several compounds together.
# Tested on: α2-adrenoceptor
# Test: Relaxation of clonidine-induced contraction of isolated rat thoracic aorta ring preparations (α2-receptor antagonistic and vasodilator effect)
# Conditions: sample 10^-5 M
# Description: (1) Preparation of Blood Vessel
# Male Wistar rats were euthanized by cervical dislocation under ether anesthesia or without anesthesia and then exsanguinated by cutting the carotid arteries. Immediately thereafter, the thoracic aortae were isolated by thoracotomy. The isolated preparations were held in Krebs-Hepes solutions [mM: NaCl, 126.9; KCl, 5.9; CaCl2, 2.36; MgCl2, 1.18; Hepes, 10.03; glucose, 11.8 (pH=7.4)] gassed with O2 (100%). The connective tissues and adipose tissues were carefully removed under a stereoscopic microscope. Then, the aortic tissue was cut into ring preparations approximately 2 mm in length to use in the experiment. The vascular endothelium was not removed.
# (2) Measurement of Muscle Contractile/Relaxant Response
# The blood vessel preparations were held in an organ bath (UC-5TD, UFER™ Medical Instrument, Kyoto, Japan) containing 5 ml of Normal Tyrode's solution gassed with 95% O2-5% CO2. Two stainless hooks were used to suspend the preparations. Tension changes were recorded isometrically via tension transducers (T7-8-240, ORIENTEC Co., Ltd, Tokyo, Japan; and TB-611T, NIHON KOHDEN Corp., Tokyo, Japan) and amplifiers (AP-600G and AP-621G, NIHON KOHDEN Corp., Tokyo, Japan; and MSC-2, Labo Support Corporation, Osaka, Japan). Passive tension was set to the optimum tension of 2.0 g. The composition of the Normal Tyrode's solution was as follows: (mM): NaCl, 158.3; KCl, 4.0; CaCl2, 2.0; MgCl2, 1.05; NaH2PO4, 0.42; NaHCO3, 10.0; glucose, 5.6 (pH=7.4, 37±0.5° C.).
# The preparations were then incubated for 60 to 90 minutes in Normal Tyrode's solution, which was replaced with 20-minute to 30-minute intervals. To start the experiment, the preparations were first allowed to contract with a high potassium solution (high-KCl, 80 mM KCl) [composition (mM): NaCl, 82.3; KCl, 80.0; CaCl2, 2.0; MgCl2, 1.05; NaH2PO4, 0.42; NaHCO3, 10.0; glucose, 5.6 (pH=7.4)] to confirm that the preparations normally contracted. Then, the preparations were washed with a Normal Tyrode's solution, and the experiment was started.
# For the purpose of evaluating the potencies of indole derivatives tested, the artery preparations were stimulated with an α2-adrenoceptor agonist clonidine hydrochloride (Wako Pure Chemical Industries, Ltd., Osaka, Japan) (10^−7 M or 10^−6 M) in the presence of an NO synthase inhibitor N^G-nitro-L-arginine methyl ester (DOJNDO Laboratories, Kumamoto, Japan) (10^−4 M) to thereby induce continuous contraction. After developed tension reached a steady-sate level, samples (indole derivatives) (10^−5 M) were administered to the bath solution. After the relaxant effects of the samples reached the maximum levels, an α2-adrenoceptor antagonist yohimbine hydrochloride (Wako Pure Chemical Industries, Ltd., Osaka, Japan) (10^−5 M) was administered to the bath solution. Relaxant response to yohimbine hydrochloride (10^−5 M) and the height of contraction immediately before sample administration were defined as the maximum relaxation (=100%) and 0%, respectively, and the relaxant effect of the samples were expressed as percentages relative to the maximum relaxation to yohimbine hydrochloride (10^−5 M).
# The indole derivatives (samples Nos. 1 to 23) were dissolved in 100% dimethyl sulfoxide at a concentration of 10^−2 M just before use and administered to a 5-mL organ bath for evaluation. All the other drugs were dissolved and diluted in distilled water.
# The results were expressed as mean±standard error.
Compound,α2-receptor antagonistic effect and vasodilatory effect,vasodilatory effect
"COc1ccc2[nH]c(Br)c(CCNC(C)=O)c2c1Br [compound 7, N-acetyl-2,4-dibromo-5-methoxyindole-3-ethaneamine]",strong α2-receptor antagonistic effect and vasodilatory effect comparable at least to those of the α2-adrenoceptor antagonist yohimbine,–
"CCCCCCCCC(=O)NCCc1c[nH]c2ccccc12 [compound 16, N-nonanoylindole-3-ethaneamine]",–,strong vasodilatory effect
"CCCCCCC(=O)NCCc1cn(O)c2ccccc12 [compound 15, 1-hydroxy-N-heptanoylindole-3-ethaneamine]",–,strong vasodilatory effect
N-adamantyl-3-(indole-3-yl)propaneamide [compound 19],–,strong vasodilatory effect
"COc1c(Br)cc2[nH]c(Br)c(CCNC(C)=O)c2c1Br [compound 8, N-acetyl-2,4,6-tribromo-5-methoxyindole-3-ethaneamine]",strong α2-receptor antagonistic effect and vasodilatory effect comparable at least to those of the α2-adrenoceptor antagonist yohimbine,–
"COc1c(Br)cc2c(c1Br)c(CCNC(C)=O)c(Br)n2C(C)=O [compound 9, N,1-diacetyl-2,4,6-tribromo-5-methoxyindole-3-ethaneamine]",strong α2-receptor antagonistic effect and vasodilatory effect comparable at least to those of the α2-adrenoceptor antagonist yohimbine,–
"CCCCCCCCC(=O)NCCc1cn(O)c2ccccc12 [compound 17, 1-hydroxy-N-nonanoylindole-3-ethaneamine]",–,strong vasodilatory effect
"CCCCCCC(=O)NCCc1c[nH]c2ccccc12 [compound 14, N-heptanoylindole-3-ethaneamine]",–,strong vasodilatory effect
N-adamantyl-2-(indole-3-yl)acetamide [compound 20],–,strong vasodilatory effect
N-adamantyl-2-(1-hydroxyindole-3-yl)acetamide [compound 22],–,strong vasodilatory effect
N-adamantyl-4-(1-hydroxyindole-3-yl)butaneamide [compound 21],–,strong vasodilatory effect
"COc1cc2c(CCNC(C)=O)c(Br)[nH]c2cc1Br [compound 6, N-acetyl-2,6-dibromo-5-methoxyindole-3-ethaneamine]",strong α2-receptor antagonistic effect and vasodilatory effect comparable at least to those of the α2-adrenoceptor antagonist yohimbine,–

# From patent US7872040B2, “Receptor blocker and vasodilator comprising indole derivative as active ingredient” (priority 2004, dated 2011)
